# Measurements: PubChem BioAssay (EPA / NIEHS)
# Chains of the proteins cited; added tags and fusions are not shown. Lines headed by an entry give the natural chain unless they say otherwise; changes in a name come on top.
# UniProt P24530: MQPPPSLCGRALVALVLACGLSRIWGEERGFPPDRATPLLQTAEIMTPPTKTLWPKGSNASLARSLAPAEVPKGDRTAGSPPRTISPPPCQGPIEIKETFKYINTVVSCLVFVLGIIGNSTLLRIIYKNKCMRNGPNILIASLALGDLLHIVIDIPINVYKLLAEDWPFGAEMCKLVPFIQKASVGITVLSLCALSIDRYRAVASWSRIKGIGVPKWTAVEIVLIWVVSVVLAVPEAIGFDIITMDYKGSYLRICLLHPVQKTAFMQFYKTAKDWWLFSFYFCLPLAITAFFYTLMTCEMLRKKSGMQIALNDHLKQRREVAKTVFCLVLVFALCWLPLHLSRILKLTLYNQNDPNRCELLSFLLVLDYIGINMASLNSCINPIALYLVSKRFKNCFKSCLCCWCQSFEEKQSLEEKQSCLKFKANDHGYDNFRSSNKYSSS
# UniProt P14416, whole entry, looked up: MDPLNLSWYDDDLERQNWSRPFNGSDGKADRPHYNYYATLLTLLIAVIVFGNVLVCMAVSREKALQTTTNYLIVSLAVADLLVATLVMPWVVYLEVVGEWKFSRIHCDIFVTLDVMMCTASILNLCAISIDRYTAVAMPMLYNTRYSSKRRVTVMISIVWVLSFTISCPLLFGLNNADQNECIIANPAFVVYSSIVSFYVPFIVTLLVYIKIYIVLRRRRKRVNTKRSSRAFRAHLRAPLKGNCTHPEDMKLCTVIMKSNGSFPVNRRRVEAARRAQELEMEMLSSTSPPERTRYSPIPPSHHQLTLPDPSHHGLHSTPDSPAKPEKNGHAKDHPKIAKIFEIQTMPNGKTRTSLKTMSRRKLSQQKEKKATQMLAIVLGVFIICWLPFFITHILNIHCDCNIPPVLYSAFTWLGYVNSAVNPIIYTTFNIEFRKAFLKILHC
# UniProt P28190, whole entry, looked up: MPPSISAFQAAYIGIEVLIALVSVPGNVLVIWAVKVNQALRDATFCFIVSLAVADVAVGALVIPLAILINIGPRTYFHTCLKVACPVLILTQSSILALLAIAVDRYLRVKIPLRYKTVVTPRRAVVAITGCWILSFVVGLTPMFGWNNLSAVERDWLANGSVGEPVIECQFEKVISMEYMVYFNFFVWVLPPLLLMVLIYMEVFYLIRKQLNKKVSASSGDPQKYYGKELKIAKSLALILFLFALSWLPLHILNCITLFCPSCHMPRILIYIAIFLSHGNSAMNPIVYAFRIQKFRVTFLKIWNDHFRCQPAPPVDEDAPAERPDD
# UniProt P28223, whole entry, looked up: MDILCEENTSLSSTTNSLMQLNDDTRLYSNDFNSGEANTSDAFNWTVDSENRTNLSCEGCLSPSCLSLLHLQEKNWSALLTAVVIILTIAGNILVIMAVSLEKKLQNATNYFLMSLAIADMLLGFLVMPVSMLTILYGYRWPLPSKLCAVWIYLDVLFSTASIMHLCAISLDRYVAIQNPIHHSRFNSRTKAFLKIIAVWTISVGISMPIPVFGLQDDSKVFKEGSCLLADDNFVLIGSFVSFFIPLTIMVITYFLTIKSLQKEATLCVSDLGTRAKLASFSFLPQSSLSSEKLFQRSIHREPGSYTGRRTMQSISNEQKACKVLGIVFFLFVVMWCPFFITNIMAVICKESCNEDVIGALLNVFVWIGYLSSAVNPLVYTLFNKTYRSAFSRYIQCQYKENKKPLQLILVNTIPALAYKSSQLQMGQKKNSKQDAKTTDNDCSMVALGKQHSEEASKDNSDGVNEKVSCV
# UniProt P25101, whole entry, looked up: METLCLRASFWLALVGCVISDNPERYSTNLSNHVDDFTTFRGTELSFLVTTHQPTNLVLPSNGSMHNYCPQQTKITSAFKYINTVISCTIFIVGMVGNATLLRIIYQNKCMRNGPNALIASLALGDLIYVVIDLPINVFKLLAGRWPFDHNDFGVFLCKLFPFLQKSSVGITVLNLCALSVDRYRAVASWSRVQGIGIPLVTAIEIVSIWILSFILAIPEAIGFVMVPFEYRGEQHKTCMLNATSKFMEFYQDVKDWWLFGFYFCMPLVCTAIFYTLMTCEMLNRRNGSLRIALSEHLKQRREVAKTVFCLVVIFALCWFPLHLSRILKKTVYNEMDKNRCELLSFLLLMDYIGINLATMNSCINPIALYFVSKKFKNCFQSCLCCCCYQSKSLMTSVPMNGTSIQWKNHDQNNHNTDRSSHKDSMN
# UniProt P18825, whole entry, looked up: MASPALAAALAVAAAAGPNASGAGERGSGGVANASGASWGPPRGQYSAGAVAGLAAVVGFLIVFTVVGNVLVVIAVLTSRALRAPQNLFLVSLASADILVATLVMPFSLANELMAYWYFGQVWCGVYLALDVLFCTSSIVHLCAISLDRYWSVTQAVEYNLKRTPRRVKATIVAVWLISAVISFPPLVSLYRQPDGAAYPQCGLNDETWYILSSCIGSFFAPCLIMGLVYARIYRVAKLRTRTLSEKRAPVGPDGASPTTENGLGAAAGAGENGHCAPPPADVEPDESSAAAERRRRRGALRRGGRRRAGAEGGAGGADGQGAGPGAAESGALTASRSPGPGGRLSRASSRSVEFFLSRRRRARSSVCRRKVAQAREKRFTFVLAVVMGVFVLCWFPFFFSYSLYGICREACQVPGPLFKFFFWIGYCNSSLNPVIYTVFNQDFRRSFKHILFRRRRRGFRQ
# UniProt P13945: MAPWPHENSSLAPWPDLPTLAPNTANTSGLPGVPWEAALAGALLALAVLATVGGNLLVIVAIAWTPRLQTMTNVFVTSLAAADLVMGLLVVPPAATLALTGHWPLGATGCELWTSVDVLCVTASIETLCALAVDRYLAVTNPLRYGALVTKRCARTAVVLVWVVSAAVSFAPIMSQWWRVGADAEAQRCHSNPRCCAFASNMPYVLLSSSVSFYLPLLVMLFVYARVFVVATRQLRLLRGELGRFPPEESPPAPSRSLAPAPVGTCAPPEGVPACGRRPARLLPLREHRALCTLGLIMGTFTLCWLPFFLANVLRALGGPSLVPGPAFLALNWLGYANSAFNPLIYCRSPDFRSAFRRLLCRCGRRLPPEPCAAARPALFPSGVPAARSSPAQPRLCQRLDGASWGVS
# UniProt P30542, whole entry, looked up: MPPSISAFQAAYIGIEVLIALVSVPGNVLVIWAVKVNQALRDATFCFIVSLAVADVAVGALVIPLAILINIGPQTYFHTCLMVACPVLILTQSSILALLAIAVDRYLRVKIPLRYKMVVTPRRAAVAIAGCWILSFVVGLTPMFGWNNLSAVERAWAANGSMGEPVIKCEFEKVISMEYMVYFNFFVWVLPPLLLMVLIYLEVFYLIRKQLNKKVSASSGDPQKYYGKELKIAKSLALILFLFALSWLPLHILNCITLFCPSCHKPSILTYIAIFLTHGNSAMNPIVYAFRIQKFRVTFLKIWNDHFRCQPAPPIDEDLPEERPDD
# The shares of active, inactive and inconclusive entries below differ from those in the screen. For some assays here: A potency beside an inconclusive call is a rough fit, not a confirmed value. Calls of active or inactive are those of the source. How the source made its calls: active means hit-call score of the fitted dose curve at least 0.9, where 1 is the maximum; inconclusive means response in the unintended direction; inactive means score below 0.9.
# Experiments:
# [1] = test system: guinea pig Leukotriene B4 Receptor (LTB4), gene 100379538; assay: NVS_GPCR_gLTB4: NovaScreen (NVS) G Protein-Coupled Receptor Assay for guinea pig Leukotriene B4 Receptor (LTB4) (AID 2283247)
# In short: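 Radioligand displacement on guinea pig spleen membranes, filter-based scintillation counting 2 h after dosing. Primary duplicate single point at 25 uM; hits over threshold (e.g. 30% inhibition) run in concentration-response up to 50 uM, DMSO baseline.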
# [2] = target: human Endothelin Receptor Type B (ETB), EDNRB (gene 1910) (UniProt P24530); assay: NVS_GPCR_hETB: NovaScreen (NVS) G Protein-Coupled Receptor Assay for human Endothelin Receptor Type B (ETB) (AID 2283267)
# In short: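 Human astrocytoma cell membranes; radioligand competitive binding read by filter scintillation counting 4 hours after dosing. Single-concentration duplicate screen at 25 uM, then singleton concentration-response up to 50 uM; loss of signal versus DMSO.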
# [3] = test system: bovine Histamine 1 Receptor (H1), gene 281231; assay: NVS_GPCR_bH1: NovaScreen (NVS) G Protein-Coupled Receptor Assay for bovine Histamine 1 Receptor (H1) (AID 2283246)
# In short: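 Radioligand displacement on bovine cerebellar membranes, 1 h after dosing, filter-based scintillation read-out; loss of signal vs DMSO. Duplicate single-concentration screen at 25 uM, then concentration-response up to 50 uM for hits.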
# [4] = target: human Dopamine Receptor D2 (DRD2), DRD2 (gene 1813) (UniProt P14416); assay: NVS_GPCR_hDRD2s: NovaScreen (NVS) G Protein-Coupled Receptor Assay for human Dopamine Receptor D2 (DRD2) (AID 2283266)
# In short: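 Radioligand displacement used human DRD2 membranes extracted from CHO cells and was read by filter-based scintillation counting after 1.5 hours. Primary screening was in duplicate at 25 uM. Loss of signal versus DMSO was fitted, with concentration series in follow-up.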
# [5] = target: Adenosine receptor A1 (Bos taurus) (UniProt P28190); assay: NVS_GPCR_bAdoR_NonSelective: NovaScreen (NVS) G Protein-Coupled Receptor Assay for bovine Adenosine Receptor (AdoR), Non-selective Binding (AID 2283244)
# In short: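 Bovine striatal membranes, radioligand displacement binding, 1 h after dosing, filter-based scintillation counting. Screened in duplicate at 25 uM, then concentration-response up to 50 uM; loss of specific binding relative to DMSO.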
# [6] = target: human Serotonin, 5-Hydroxytryptamine Receptor 2A (5HT2A), HTR2A (gene 3356) (UniProt P28223); assay: NVS_GPCR_h5HT2A: NovaScreen (NVS) G Protein-Coupled Receptor Assay for human Serotonin, 5-Hydroxytryptamine Receptor 2A (5HT2A) (AID 2283249)
# In short: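 Human cortex membranes, cell-free radioligand binding; filter-based scintillation read 1.5 h after dosing. Duplicate screen at 25 uM first; displacement of specific binding (loss of signal) versus DMSO.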
# [7] = target: Type-1 angiotensin II receptor (Homo sapiens) (UniProt P30556); assay: NVS_GPCR_hAT1: NovaScreen (NVS) G Protein-Coupled Receptor Assay for human Angiotensin II receptor type 1 (AT1) (AID 2283263)
# In short: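 Membranes from KAN-TS cells; radioligand competitive displacement, 3 h, filtration and scintillation counting. Single-point duplicate screen at 25 uM, then concentration-response up to 50 uM for hits; loss of signal fitted versus DMSO.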
# [8] = target: human Endothelin Receptor Type A (ETA), EDNRA (gene 1909) (UniProt P25101); assay: NVS_GPCR_hETA: NovaScreen (NVS) G Protein-Coupled Receptor Assay for human Endothelin Receptor Type A (ETA) (AID 2283265)
# In short: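 Cell-free radioligand displacement using SH-SY5Y-derived protein, 3 h incubation, filter-based scintillation counting. Primary screen in duplicate at 25 uM; actives then run in concentration-response up to 50 uM; loss of binding fitted versus DMSO.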
# [9] = target: human Adrenergic, Alpha 2c Receptor (Adra2C), ADRA2C (gene 152) (UniProt P18825); assay: NVS_GPCR_hAdra2C: NovaScreen (NVS) G Protein-Coupled Receptor Assay for human Adrenergic, Alpha 2c Receptor (Adra2C) (AID 2283259)
# In short: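 Radioligand binding on Sf9-expressed receptor membranes, 1 h after chemical dosing, filter-based scintillation read-out. Loss of binding fitted positively versus DMSO; primary duplicate screen at 25 uM, actives retested in concentration series.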
# [10] = target: human Adrenergic, Beta 3 Receptor (Adrb3), ADRB3 (gene 155) (UniProt P13945); assay: NVS_GPCR_hAdrb3: NovaScreen (NVS) G Protein-Coupled Receptor Assay for human Adrenergic, Beta 3 Receptor (Adrb3) (AID 2283262)
# In short: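 Membranes from SK-N-MC cells pretreated with isoproterenol and 8-bromo-cAMP were used in a radioligand competitive displacement binding assay. Binding was read by filter-based scintillation counting 1 hour after dosing. Primary screening was in duplicate at 25 uM, with concentration series in follow-up.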
# [11] = target: Beta-2 adrenergic receptor (Homo sapiens) (UniProt P07550); assay: NVS_GPCR_hAdrb2: NovaScreen (NVS) G Protein-Coupled Receptor Assay for human Adrenergic, Beta 2 Receptor (Adrb2) (AID 2283261)
# In short: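 Filter-based radioligand binding using receptor prepared from CHO cells, 1 h incubation, scintillation counting. Primary screen in duplicate at 25 uM, actives retested in concentration series; loss of binding relative to DMSO.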
# [12] = target: human Adenosine A2a Receptor (AdoRA2a), ADORA2A (gene 135) (UniProt P29274); assay: NVS_GPCR_hAdoRA2a: NovaScreen (NVS) G Protein-Coupled Receptor Assay for human Adenosine A2a Receptor (AdoRA2a) (AID 2283256)
# In short: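 Radioligand displacement on HEK293-derived membrane protein, cell-free; filter-based scintillation counting 1.5 hours after dosing, loss of signal vs DMSO. Single-point duplicate screen at 25 uM, actives retested in concentration series.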
# [13] = test system: guinea pig Muscarinic, Peripheral (Mperiperal) Receptor, Non-selective Binding, gene 100379235; assay: NVS_GPCR_gMPeripheral_NonSelective: NovaScreen (NVS) G Protein-Coupled Receptor Assay for guinea pig Muscarinic, Peripheral (Mperiperal) Receptor, Non-selective Binding (AID 2283250)
# In short: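 Guinea pig bladder membranes, radioligand binding read 1 h after dosing by filter scintillation counting; loss of signal vs DMSO. Primary duplicate screen at 25 uM, then concentration-response up to 50 uM.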
# [14] = target: human Adenosine A1 Receptor (AdoRA1), ADORA1 (gene 134) (UniProt P30542); assay: NVS_GPCR_hAdoRA1: NovaScreen (NVS) G Protein-Coupled Receptor Assay for human Adenosine A1 Receptor (AdoRA1) (AID 2283254)
# In short: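 Radioligand competition binding on human cortical membranes, 1 h after compound addition; bound radioactivity read by filtration and scintillation counting. Loss of signal versus DMSO baseline scored as displacement; primary screen duplicate at 25 uM, actives retested in concentration series.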
smiles,measurement,setting,value
CN(C[C@@H](CC[N+]12CCC(C3CCCCC3)(CC1)CC2)c1ccc(Cl)c(Cl)c1)C(=O)c1cc(C(F)(F)F)cc(C(F)(F)F)c1,AC50,[1],active: 166 nM
same,outcome,[2],inactive
C[C@]12C=CC(=O)C=C1CC[C@@H]1[C@@H]2C(=O)C[C@@]2(C)[C@H]1CC[C@]2(O)C(=O)CO,outcome,[3],inactive
COC(=O)c1ccc(O)cc1,AC50,[1],inconclusive: 25000 nM
CCOC(=O)COc1cc(-n2ncc(C(F)(F)F)c(C)c2=O)c(F)cc1Cl,AC50,[3],inconclusive: 1.39 µM
COc1cccc(-c2ccc(/C=C\CN3CCCCCC3)cc2Cl)c1,AC50,[3],active: 8.81 µM
same,AC50,[4],active: 8.5 µM
CN(C)c1ccc(C(=C2C=CC(=[N+](C)C)C=C2)c2ccc(N(C)C)cc2)cc1,AC50,[5],active: 13.6 µM
COCCOC[C@H](CC1(C(=O)NC2CCC(C(=O)O)CC2)CCCC1)C(=O)Oc1ccc2c(c1)CCC2 (some centres not stated),AC50,[5],inconclusive: 25 µM
CCC(C)N(C)C(=O)c1cc2ccccc2c(-c2ccccc2Cl)n1 (configuration not stated),outcome,[6],inactive
CCCCCCCCCCCCCCOS(=O)(=O)O,AC50,[1],inconclusive: 79.7 nM
same,outcome,[7],inactive
COc1ccc(OC(F)(F)F)cc1CN[C@H]1CCCN[C@H]1c1ccccc1,AC50,[5],inconclusive: 1.35 µM
CCN(CC)C(=O)c1cc(S(=O)(=O)Cc2ccccc2)c(N2CCC(c3ccccc3)CC2)cc1N(CC)CCN(C)C,outcome,[5],inactive
O=c1[nH]c2ccc(S(=O)CCN3CCC(Cc4ccc(F)cc4)CC3)cc2o1 (configuration not stated),AC50,[3],active: 3.91 µM
same,AC50,[6],active: 2.59 µM
CCOc1ccc2[nH]cc(C(=O)NCc3ccccc3)c(=O)c2n1,AC50,[5],inconclusive: 1.36 µM
same,AC50,[8],inconclusive: 1.36 µM
C#C[C@]1(O)CC[C@H]2[C@@H]3CCC4=CC(=O)CC[C@@H]4[C@H]3CC[C@@]21CC,AC50,[3],inconclusive: 0.219 µM
CSc1ccc(Oc2ccc(S(N)(=O)=O)cc2CN(C)C)cc1C,AC50,[3],inconclusive: 0.263 µM
same,AC50,[9],active: 5.83 µM
same,outcome,[10],inactive
O=C(O)CN(CC(=O)O)CC(=O)O,outcome,[5],inactive
same,AC50,[11],inconclusive: 1.51 µM
CC(=O)S[C@@H]1CC2=CC(=O)CC[C@]2(C)[C@H]2CC[C@@]3(C)[C@@H](CC[C@@]34CCC(=O)O4)[C@H]12,outcome,[3],inactive
O=C(O)Cc1cc(I)c(Oc2cc(I)c(O)c(I)c2)c(I)c1,outcome,[5],inactive
same,AC50,[3],inconclusive: 16.8 µM
same,AC50,[12],inconclusive: 207 nM
same,AC50,[10],inconclusive: 16.8 µM
same,outcome,[7],inactive
CCc1c(C(=O)NN2CCCCC2)nn(-c2ccc(Cl)cc2Cl)c1-c1ccc(Br)cc1,outcome,[5],inactive
O=C(O)c1ccccc1,AC50,[5],inconclusive: 25 µM
same,AC50,[8],inconclusive: 45.9 µM
NC(=Nc1ccccc1)Nc1ccccc1,AC50,[5],inconclusive: 25 µM
CC(=O)NC1(c2cccc(F)c2)CCN(CC[C@@]2(c3ccc(Cl)c(Cl)c3)CN(c3ccccc3)C(=O)CO2)CC1,AC50,[6],active: 1.9 µM
O=C(O)c1cccc(Oc2ccccc2)c1,outcome,[1],inactive
OC12N=C(c3ccccc3)SC1Cc1cc(Cl)ccc12 (configuration not stated),outcome,[6],inactive
C[C@]12C[C@H](O)[C@H]3[C@@H](CCC4=CC(=O)CC[C@@]43C)[C@@H]1CC[C@@H]2C(=O)CO,outcome,[1],inactive
same,AC50,[8],inconclusive: 25 µM
O=C(O)c1ccccc1-n1cc(C(=O)O)c(=O)c2cc(Nc3c(F)cc(F)cc3Cl)c(Cl)cc21,AC50,[6],inconclusive: 12.5 µM
CCNc1cccc(C)c1,AC50,[5],inconclusive: 25 µM
NC(=O)N1c2ccccc2C=Cc2ccccc21,outcome,[3],inactive
CC[C@H](NC(=O)c1cc(F)ccc1NS(=O)(=O)c1cccc2cccnc12)c1ccccc1,AC50,[1],active: 206 nM
same,AC50,[13],inconclusive: 6.58 µM
CCN(CC)CCNc1ccc(CNC=O)c2sc3ccc(OC)cc3c(=O)c12,AC50,[5],active: 4.38 µM
same,AC50,[9],active: 14.6 µM
O=CCCCC=O,outcome,[3],inactive
same,AC50,[6],inconclusive: 1.2 µM
same,AC50,[9],inconclusive: 25 µM
CC(C)=CCCC(C)CCO (configuration not stated),AC50,[5],inconclusive: 25 µM
OCC(CO)(CO)CO,AC50,[6],inconclusive: 0.127 µM
COc1cccc([C@H](O)C2CCN(CCc3ccc(F)cc3)CC2)c1OC,AC50,[3],active: 5.41 µM
same,outcome,[10],inactive
CCCCc1ccc2c(n1)[C@@H](c1ccc(OC)cc1C[C@H](C)C(=O)O)[C@H](C(=O)O)[C@H]2c1ccc2c(c1)OCO2,AC50,[5],inconclusive: 1.49 µM
same,AC50,[2],active: 3.61 nM
O=C(O)c1ccc2c(c1)nc(C(=O)NC1CCN(C3CC3)CC1)n2Cc1cc(-c2ccc(Cl)s2)on1,AC50,[6],inconclusive: 0.417 µM
O=C1CCC(C2CCCCC2)CC1,AC50,[1],inconclusive: 154 nM
same,AC50,[14],inconclusive: 25 µM
COC(=O)CC(=O)OC,AC50,[5],inconclusive: 25 µM
C[C@@H]1C[C@H]2[C@@H]3CCC4=CC(=O)C=C[C@]4(C)[C@@]3(F)[C@@H](O)C[C@]2(C)[C@@]1(O)C(=O)COP(=O)(O)O,AC50,[1],inconclusive: 757 nM
CCO[Si](C)(C)OCC,AC50,[12],inconclusive: 739 nM
O=c1c(-c2ccc(O)cc2)coc2cc(O)ccc12,outcome,[6],inactive

# Shown as tab-separated lines: part of the list above.
smiles	measurement	setting	value
COCCOC[C@H](CC1(C(=O)NC2CCC(C(=O)O)CC2)CCCC1)C(=O)Oc1ccc2c(c1)CCC2 (some centres not stated)	AC50	[5]	inconclusive: 25 µM
CCC(C)N(C)C(=O)c1cc2ccccc2c(-c2ccccc2Cl)n1 (configuration not stated)	outcome	[6]	inactive
CCCCCCCCCCCCCCOS(=O)(=O)O	AC50	[1]	inconclusive: 79.7 nM
same	outcome	[7]	inactive
COc1ccc(OC(F)(F)F)cc1CN[C@H]1CCCN[C@H]1c1ccccc1	AC50	[5]	inconclusive: 1.35 µM
CCN(CC)C(=O)c1cc(S(=O)(=O)Cc2ccccc2)c(N2CCC(c3ccccc3)CC2)cc1N(CC)CCN(C)C	outcome	[5]	inactive
O=c1[nH]c2ccc(S(=O)CCN3CCC(Cc4ccc(F)cc4)CC3)cc2o1 (configuration not stated)	AC50	[3]	active: 3.91 µM
same	AC50	[6]	active: 2.59 µM
CCOc1ccc2[nH]cc(C(=O)NCc3ccccc3)c(=O)c2n1	AC50	[5]	inconclusive: 1.36 µM
same	AC50	[8]	inconclusive: 1.36 µM
C#C[C@]1(O)CC[C@H]2[C@@H]3CCC4=CC(=O)CC[C@@H]4[C@H]3CC[C@@]21CC	AC50	[3]	inconclusive: 0.219 µM
CSc1ccc(Oc2ccc(S(N)(=O)=O)cc2CN(C)C)cc1C	AC50	[3]	inconclusive: 0.263 µM
same	AC50	[9]	active: 5.83 µM
same	outcome	[10]	inactive
O=C(O)CN(CC(=O)O)CC(=O)O	outcome	[5]	inactive
same	AC50	[11]	inconclusive: 1.51 µM
CC(=O)S[C@@H]1CC2=CC(=O)CC[C@]2(C)[C@H]2CC[C@@]3(C)[C@@H](CC[C@@]34CCC(=O)O4)[C@H]12	outcome	[3]	inactive
O=C(O)Cc1cc(I)c(Oc2cc(I)c(O)c(I)c2)c(I)c1	outcome	[5]	inactive
